Test results published in article PMC12147174, “PEX1^G843D remains functional in peroxisome biogenesis but is rapidly degraded by the proteasome” (The Journal of Biological Chemistry, 2025).
Results are given in words; binding and its absence hold for the method and conditions named. Binding seen in cells or lysates may run through a third protein. Some entries that bind do so weakly or less than the wild type. Sequences can lack the tags named with a protein.

Legend:
Experiment in all cases: co-IP; anti-FLAG M2 agarose from HCT116 lysate in LB1 (60 mM Hepes pH 7.6, 150 mM NaCl, 150 mM KCl, 10 mM MgCl2, 5% glycerol, 0.25 mM ATPγS, 1.0% Triton X-100, 0.5 mM EDTA), 4 °C, eluted with FLAG peptide; immunoblot for PEX6
[1] = target: T1, FLAG-PEX1^G843D (human PEX1 G843D, N-terminal FLAG knock-in) (human (endogenous in HCT116)) (UniProt O43933)
T1 sequence: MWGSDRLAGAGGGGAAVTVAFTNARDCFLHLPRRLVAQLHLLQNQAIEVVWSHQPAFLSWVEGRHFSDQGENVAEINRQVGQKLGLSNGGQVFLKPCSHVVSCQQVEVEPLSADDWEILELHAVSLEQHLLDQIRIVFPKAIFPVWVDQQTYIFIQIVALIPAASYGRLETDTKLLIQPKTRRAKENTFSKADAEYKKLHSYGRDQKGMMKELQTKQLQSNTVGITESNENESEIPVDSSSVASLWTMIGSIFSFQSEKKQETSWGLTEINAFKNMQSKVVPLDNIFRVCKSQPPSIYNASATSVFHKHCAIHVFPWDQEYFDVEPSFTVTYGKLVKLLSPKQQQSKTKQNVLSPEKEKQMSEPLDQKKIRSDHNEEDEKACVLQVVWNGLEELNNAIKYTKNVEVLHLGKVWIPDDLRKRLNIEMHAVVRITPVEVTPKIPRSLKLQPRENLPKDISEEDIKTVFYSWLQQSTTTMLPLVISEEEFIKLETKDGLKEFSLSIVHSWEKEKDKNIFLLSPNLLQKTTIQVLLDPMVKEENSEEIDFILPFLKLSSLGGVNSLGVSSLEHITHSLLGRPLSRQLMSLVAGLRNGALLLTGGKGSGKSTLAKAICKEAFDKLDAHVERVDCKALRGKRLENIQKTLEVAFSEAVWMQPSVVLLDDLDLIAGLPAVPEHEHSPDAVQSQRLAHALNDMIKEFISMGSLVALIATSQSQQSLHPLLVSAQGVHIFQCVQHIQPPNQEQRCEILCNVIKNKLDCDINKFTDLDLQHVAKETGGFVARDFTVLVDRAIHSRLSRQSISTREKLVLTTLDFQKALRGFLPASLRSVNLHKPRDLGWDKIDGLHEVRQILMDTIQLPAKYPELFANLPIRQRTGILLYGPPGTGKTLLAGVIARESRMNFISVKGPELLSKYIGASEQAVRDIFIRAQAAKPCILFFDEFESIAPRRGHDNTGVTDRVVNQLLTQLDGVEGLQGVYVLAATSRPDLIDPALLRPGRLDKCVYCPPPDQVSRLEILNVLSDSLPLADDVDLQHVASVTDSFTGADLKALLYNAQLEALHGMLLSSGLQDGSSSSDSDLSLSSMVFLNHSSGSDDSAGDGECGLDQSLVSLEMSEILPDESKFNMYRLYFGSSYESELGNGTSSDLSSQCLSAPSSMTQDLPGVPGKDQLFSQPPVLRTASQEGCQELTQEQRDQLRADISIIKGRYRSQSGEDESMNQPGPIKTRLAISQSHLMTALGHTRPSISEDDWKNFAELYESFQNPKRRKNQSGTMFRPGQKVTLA

[2] = target: T2, PEX1^G843D-FLAG (human PEX1 G843D, C-terminal FLAG knock-in) (human (endogenous in HCT116)) (UniProt O43933)
T2 sequence: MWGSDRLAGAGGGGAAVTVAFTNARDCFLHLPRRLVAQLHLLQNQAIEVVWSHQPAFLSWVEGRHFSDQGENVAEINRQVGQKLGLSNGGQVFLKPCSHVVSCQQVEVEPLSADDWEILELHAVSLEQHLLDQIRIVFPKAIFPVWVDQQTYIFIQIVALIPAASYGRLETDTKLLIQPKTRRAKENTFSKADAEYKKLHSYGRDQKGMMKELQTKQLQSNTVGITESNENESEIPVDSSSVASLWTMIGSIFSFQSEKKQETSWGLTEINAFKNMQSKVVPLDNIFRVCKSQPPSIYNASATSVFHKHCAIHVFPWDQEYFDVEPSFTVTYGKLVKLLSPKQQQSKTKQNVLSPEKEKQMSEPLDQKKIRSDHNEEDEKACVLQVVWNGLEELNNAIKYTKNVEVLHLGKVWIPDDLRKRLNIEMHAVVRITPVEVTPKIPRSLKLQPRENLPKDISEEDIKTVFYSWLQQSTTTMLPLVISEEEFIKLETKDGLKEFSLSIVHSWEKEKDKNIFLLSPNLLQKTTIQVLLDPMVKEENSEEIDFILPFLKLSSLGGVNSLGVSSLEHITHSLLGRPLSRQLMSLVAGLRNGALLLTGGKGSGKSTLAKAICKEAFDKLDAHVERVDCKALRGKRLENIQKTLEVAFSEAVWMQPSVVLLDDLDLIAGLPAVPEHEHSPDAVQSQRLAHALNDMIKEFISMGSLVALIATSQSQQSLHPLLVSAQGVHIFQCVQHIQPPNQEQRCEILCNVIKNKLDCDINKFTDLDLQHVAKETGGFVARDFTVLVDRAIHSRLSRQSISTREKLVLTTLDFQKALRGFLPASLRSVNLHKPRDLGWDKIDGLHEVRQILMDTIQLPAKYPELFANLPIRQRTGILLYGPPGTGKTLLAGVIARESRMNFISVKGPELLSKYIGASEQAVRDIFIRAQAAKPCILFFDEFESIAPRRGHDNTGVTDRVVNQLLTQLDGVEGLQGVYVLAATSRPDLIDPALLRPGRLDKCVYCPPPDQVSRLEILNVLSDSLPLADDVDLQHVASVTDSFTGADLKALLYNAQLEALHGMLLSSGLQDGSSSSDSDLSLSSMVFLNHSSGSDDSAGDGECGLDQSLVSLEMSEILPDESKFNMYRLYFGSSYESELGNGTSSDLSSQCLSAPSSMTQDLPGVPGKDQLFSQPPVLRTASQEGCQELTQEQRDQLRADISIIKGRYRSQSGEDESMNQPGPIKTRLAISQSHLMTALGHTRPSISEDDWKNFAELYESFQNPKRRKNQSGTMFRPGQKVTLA

[3] = target: T3, PEX1^WT-FLAG (human PEX1, C-terminal FLAG knock-in) (human (endogenous in HCT116)) (UniProt O43933)
T3 sequence: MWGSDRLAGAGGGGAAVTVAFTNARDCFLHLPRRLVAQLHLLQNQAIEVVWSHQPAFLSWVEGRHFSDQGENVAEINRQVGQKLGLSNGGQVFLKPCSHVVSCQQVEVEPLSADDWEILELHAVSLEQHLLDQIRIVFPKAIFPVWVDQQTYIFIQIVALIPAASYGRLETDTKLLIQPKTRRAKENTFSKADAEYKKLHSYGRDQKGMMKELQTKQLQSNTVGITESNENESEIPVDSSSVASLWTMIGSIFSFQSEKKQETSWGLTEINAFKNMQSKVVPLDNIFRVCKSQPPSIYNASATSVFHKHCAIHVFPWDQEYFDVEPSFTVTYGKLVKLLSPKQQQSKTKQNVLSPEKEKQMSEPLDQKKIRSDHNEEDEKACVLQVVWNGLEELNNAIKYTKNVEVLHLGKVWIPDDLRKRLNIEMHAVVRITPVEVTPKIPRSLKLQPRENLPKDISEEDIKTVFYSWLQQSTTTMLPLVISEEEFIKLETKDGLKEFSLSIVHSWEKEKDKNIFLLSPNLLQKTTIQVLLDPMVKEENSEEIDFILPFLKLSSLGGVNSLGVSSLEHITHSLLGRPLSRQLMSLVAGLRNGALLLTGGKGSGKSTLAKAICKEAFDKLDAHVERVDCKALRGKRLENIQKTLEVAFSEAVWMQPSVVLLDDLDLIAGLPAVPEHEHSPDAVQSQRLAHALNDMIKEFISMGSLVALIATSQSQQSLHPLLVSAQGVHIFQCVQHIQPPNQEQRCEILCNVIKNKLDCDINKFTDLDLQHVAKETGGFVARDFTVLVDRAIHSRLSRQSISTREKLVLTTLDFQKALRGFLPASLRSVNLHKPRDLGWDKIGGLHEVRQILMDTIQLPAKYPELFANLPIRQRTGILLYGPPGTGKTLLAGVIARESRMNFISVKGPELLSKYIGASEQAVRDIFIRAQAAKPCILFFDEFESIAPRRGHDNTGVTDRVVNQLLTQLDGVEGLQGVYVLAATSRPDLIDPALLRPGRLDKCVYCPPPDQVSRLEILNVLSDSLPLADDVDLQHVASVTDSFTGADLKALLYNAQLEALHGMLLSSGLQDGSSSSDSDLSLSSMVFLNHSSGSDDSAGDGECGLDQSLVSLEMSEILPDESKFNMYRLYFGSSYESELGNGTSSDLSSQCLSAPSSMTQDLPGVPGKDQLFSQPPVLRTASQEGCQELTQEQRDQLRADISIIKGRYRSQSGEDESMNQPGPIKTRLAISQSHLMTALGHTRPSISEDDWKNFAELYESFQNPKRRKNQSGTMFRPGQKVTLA

[4] = target: T4, FLAG-PEX1^WT (human PEX1, N-terminal FLAG knock-in) (human (endogenous in HCT116)) (UniProt O43933)
T4 sequence: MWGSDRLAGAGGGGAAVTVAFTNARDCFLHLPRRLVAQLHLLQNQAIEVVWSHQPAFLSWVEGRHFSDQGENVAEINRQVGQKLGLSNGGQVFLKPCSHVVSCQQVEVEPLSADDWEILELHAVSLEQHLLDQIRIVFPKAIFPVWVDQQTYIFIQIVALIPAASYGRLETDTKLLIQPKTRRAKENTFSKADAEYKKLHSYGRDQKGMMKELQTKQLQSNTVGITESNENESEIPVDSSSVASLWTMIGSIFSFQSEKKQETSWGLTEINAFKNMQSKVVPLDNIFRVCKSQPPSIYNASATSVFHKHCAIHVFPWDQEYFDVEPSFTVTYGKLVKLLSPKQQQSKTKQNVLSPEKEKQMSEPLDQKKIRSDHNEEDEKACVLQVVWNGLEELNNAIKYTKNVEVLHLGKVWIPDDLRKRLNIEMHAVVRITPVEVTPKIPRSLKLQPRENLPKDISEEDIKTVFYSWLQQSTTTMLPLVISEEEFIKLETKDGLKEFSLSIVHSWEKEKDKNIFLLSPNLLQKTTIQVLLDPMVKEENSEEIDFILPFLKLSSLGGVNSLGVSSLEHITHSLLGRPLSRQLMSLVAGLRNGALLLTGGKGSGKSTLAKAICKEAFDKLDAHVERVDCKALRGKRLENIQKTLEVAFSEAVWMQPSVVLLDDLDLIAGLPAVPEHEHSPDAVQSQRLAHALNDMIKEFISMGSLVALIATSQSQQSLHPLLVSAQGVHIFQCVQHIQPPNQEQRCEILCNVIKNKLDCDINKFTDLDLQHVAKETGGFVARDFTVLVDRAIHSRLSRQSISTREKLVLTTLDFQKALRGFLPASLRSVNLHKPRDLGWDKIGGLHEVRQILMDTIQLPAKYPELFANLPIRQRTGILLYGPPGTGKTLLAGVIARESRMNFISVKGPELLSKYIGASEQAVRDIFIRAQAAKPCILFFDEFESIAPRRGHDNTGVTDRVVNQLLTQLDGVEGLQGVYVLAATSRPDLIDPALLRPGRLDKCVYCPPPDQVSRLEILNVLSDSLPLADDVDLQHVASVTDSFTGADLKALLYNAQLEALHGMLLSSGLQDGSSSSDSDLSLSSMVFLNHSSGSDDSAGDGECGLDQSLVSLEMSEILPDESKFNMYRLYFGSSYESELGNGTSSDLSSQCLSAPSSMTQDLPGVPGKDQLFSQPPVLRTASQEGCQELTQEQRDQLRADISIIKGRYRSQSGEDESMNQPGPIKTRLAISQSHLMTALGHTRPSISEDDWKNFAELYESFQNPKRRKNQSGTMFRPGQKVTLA

Measured: binding

B1: PEX6 (human) (protein, UniProt Q13608 1-980)
chain: MALAVLRVLEPFPTETPPLAVLLPPGGPWPAAELGLVLALRPAGESPAGPALLVAALEGPDAGTEEQGPGPPQLLVSRALLRLLALGSGAWVRARAVRRPPALGWALLGTSLGPGLGPRVGPLLVRRGETLPVPGPRVLETRPALQGLLGPGTRLAVTELRGRARLCPESGDSSRPPPPPVVSSFAVSGTVRRLQGVLGGTGDSLGVSRSCLRGLGLFQGEWVWVAQARESSNTSQPHLARVQVLEPRWDLSDRLGPGSGPLGEPLADGLALVPATLAFNLGCDPLEMGELRIQRYLEGSIAPEDKGSCSLLPGPPFARELHIEIVSSPHYSTNGNYDGVLYRHFQIPRVVQEGDVLCVPTIGQVEILEGSPEKLPRWREMFFKVKKTVGEAPDGPASAYLADTTHTSLYMVGSTLSPVPWLPSEESTLWSSLSPPGLEALVSELCAVLKPRLQPGGALLTGTSSVLLRGPPGCGKTTVVAAACSHLGLHLLKVPCSSLCAESSGAVETKLQAIFSRARRCRPAVLLLTAVDLLGRDRDGLGEDARVMAVLRHLLLNEDPLNSCPPLMVVATTSRAQDLPADVQTAFPHELEVPALSEGQRLSILRALTAHLPLGQEVNLAQLARRCAGFVVGDLYALLTHSSRAACTRIKNSGLAGGLTEEDEGELCAAGFPLLAEDFGQALEQLQTAHSQAVGAPKIPSVSWHDVGGLQEVKKEILETIQLPLEHPELLSLGLRRSGLLLHGPPGTGKTLLAKAVATECSLTFLSVKGPELINMYVGQSEENVREVFARARAAAPCIIFFDELDSLAPSRGRSGDSGGVMDRVVSQLLAELDGLHSTQDVFVIGATNRPDLLDPALLRPGRFDKLVFVGANEDRASQLRVLSAITRKFKLEPSVSLVNVLDCCPPQLTGADLYSLCSDAMTAALKRRVHDLEEGLEPGSSALMLTMEDLLQAAARLQPSVSEQELLRYKRIQRKFAAC
binds: all assays above
